Experiment [1] concerns the target T1, Wts:FLAG (Drosophila) (UniProt Q9VA38).
T1 sequence: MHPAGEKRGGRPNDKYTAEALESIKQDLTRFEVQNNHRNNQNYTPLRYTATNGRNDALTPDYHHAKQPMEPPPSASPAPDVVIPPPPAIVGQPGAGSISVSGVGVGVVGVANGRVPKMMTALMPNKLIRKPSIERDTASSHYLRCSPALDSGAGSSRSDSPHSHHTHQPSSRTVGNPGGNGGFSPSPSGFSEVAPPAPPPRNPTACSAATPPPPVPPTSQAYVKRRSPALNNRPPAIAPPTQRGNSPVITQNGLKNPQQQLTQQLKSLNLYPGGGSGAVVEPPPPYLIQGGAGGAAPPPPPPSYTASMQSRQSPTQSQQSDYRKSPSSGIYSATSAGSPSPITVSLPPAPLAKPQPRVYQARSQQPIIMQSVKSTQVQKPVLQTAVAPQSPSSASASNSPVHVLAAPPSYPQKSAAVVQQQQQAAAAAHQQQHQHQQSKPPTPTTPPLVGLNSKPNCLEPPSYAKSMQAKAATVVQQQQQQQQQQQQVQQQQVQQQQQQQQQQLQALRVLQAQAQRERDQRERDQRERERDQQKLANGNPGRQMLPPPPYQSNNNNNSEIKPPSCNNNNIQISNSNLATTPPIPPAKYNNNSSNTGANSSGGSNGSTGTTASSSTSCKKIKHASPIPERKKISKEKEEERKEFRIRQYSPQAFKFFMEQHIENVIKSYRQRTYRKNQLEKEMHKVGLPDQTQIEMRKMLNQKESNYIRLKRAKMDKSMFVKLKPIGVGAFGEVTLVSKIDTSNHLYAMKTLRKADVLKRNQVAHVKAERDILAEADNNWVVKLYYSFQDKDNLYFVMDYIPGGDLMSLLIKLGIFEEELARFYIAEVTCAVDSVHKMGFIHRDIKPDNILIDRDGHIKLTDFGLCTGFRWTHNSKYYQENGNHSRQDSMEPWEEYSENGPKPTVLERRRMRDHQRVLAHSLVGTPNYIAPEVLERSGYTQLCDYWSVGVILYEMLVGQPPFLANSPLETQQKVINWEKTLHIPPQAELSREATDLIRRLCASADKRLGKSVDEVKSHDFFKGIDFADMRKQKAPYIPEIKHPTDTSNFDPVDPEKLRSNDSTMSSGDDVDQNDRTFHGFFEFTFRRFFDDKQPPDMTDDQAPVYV
Kind of experiment: co-IP; three proteins co-expressed in S2 cells: Wts:FLAG with Zyx:V5 or Zyx-LD:V5 and Dachs:V5 (1x, 3x, 6x pUAS-dachs:V5 plasmid); anti-FLAG beads; V5-tagged proteins detected by Western blot.

In experiment [2] the target is T1, Wts:FLAG (Drosophila). In words: co-IP; tagged proteins co-expressed in Drosophila S2 cells; lysates cleared with protein G beads; anti-FLAG M2 beads overnight at 4°C, six washes with RIPA buffer; V5-tagged proteins detected by Western blot; GFP:FLAG as negative control. For orientation: Immunoblotting shows a protein as a band on a membrane.

These are yes or no findings as the source states them, for the method shown. Binding seen in cells or lysates may run through a third protein. A result given as binding can be weak or reduced; the word gives no strength. Tags and fused reporters may be left off the sequences shown.

We go through two substances from publication PMC3110180.

In the case of Dachs:V5 (Drosophila), in the experiment with Wts:FLAG (Drosophila) [1], the binding entry is given as “binds”.

Turning to Zyx:V5 (Drosophila), the figures for the binding result in the experiment with Wts:FLAG (Drosophila) [1] and in the experiment with Wts:FLAG (Drosophila) [2] were “binds” and “binds weakly”, respectively.
